In article PMC6925144, “A prospective compound screening contest identified broader inhibitors for Sirtuin 1” (Scientific Reports, 2019):
The full ranking holds about 3,200 compounds; the median of “TSA(with NAD+) / Primary screening (TSA) / delta Tm (K)” is about -0.04, and the highest 2% start at about 0.37. The list shows a part of the results.

Protein sequences, listed by entry. Tags and fused reporters are not part of them. Residues count along the entry.
UniProt Q96EB6, 2-747 limits assumed: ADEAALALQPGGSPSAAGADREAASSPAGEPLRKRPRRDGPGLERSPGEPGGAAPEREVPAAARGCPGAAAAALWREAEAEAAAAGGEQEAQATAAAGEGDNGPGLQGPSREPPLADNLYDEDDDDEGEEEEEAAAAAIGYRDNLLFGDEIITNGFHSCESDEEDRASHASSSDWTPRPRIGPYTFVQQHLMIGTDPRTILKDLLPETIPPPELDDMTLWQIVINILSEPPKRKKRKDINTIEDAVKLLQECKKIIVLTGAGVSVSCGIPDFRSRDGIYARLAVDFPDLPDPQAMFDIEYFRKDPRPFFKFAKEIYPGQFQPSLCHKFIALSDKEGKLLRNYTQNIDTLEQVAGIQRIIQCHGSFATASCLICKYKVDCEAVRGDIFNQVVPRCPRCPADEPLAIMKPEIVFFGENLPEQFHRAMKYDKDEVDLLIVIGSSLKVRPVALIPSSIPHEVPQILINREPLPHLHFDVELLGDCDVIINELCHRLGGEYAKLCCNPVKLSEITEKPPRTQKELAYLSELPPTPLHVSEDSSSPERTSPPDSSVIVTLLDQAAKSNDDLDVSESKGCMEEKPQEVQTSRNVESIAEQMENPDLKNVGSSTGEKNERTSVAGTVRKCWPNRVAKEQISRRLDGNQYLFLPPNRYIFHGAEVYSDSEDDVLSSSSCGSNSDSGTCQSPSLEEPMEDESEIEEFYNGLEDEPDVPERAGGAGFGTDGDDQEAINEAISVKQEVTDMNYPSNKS

target: NAD-dependent deacetylase Sirtuin 1 (human, UniProt Q96EB6); test: primary screen, delta tm; set-up: single well (n = 1, as 'the same TSA'); details: 10 µM

SMILES | TSA(with NAD+) / Primary screening (TSA) / delta Tm (K)
Cc1cccc2c(CC(=O)O)c(-c3ccccc3)[nH]c12 | -0.18 K
CCCOc1ccc(NC=C2C(=O)NC(=S)NC2=O)cc1OCCC | -0.08 K
O=C(Cc1cccc2ccccc12)NC(c1ccccc1)c1ccccc1 | -0.03 K
O=C1/C(=C/c2ccc(F)cc2)Oc2cc(O)ccc21 | -0.01 K
Cc1noc(C)c1COc1cccc(C(=O)Nc2ccc(N3CCN(Cc4ccccc4)CC3)cc2)c1 | 0.12 K
CCN(CC)S(=O)(=O)c1cccc(C(=O)N[C@H](C(=O)OCC(=O)NC(C)C23CC4CC(CC(C4)C2)C3)C(C)C)c1 (stereo partly shown) | -0.11 K
O=C1/C(=C/c2cccc3cccnc23)COc2ccc(Br)cc21 | 0.09 K
CN(C)c1ccc(S(N)(=O)=O)cc1N | -0.04 K
COc1ccc(CCNC(=O)c2ccccc2SCC(=O)NC23CC4CC(CC(C4)C2)C3)cc1 | 0.05 K
CC(=O)Nc1ccc(NC(=O)c2cn(Cc3ccccc3)nc2-c2ccc(Cl)cc2)cc1 | 0.19 K
N#CC1=C(N)N(c2ccccc2)C(=O)C1 | -0.22 K
Oc1ccc(/C=N/c2ccccc2Cc2ccccc2)c(O)c1O | -0.48 K
Cc1[nH]c2ccc(CNC(=O)N3CCC(C(N)=O)CC3)cc2c1C | -0.05 K
O=C(/C=C/c1ccc(N2CCCC2=O)cc1)NCCN1CCOCC1 | 0.16 K
Cc1cccc(Nc2nnc(SCC(=O)Nc3ccc(C(N)=O)cc3)s2)c1 | 0.17 K
Cc1ccc(C(=O)OCC(=O)NC(C)c2ccc3c(c2)CCCC3)cc1O (stereo not shown) | -0.01 K
CN1CCN(C(=O)/C=C/c2cn(CCC#N)c3ccccc23)C(c2ccccc2)C1 (stereo not shown) | -0.14 K
NC(=O)c1ccc(NC(=O)c2cc(-c3cccnc3)nc3ccccc23)cc1 | -0.09 K
NC(=O)c1ccc(NC(=O)COC(=O)CNC(=O)C2CCCCC2)cc1 | 0.01 K
NS(=O)(=O)c1ccc2c(c1)CCN2C(=O)Nc1cccc2ccccc12 | 0.08 K
CCn1c(S)nnc1C1CC1 | -0.23 K
O=c1oc2ccc3ccccc3c2cc1-c1cnc(N/N=C/c2ccc(Br)cc2)s1 | 0.28 K
Cc1ccc(C(=O)OCC(=O)NC(C)C23CC4CC(CC(C4)C2)C3)cc1NC(=O)c1ccco1 (stereo not shown) | -0.12 K
Cc1cc(C(=O)OCc2cc3ccccc3[nH]c2=O)on1 | -0.14 K
O=C(CN1CCCCCCC1=O)NCCc1nc2ccccc2[nH]1 | -0.22 K

Reprinted at random: 3 records from the list
SMILES | TSA(with NAD+) / Primary screening (TSA) / delta Tm (K)
Oc1ccc(/C=N/c2ccccc2Cc2ccccc2)c(O)c1O | -0.48 K
CCCOc1ccc(NC=C2C(=O)NC(=S)NC2=O)cc1OCCC | -0.08 K
CCn1c(S)nnc1C1CC1 | -0.23 K

(list continues)

SMILES | TSA(with NAD+) / Primary screening (TSA) / delta Tm (K)
Cc1cccc(NC(=O)CN2CCN(c3ccccc3F)CC2)c1C | -0.05 K
CCCC(N)CN (stereo not shown) | -0.19 K
Cc1cc(CNc2ccccc2C(N)=O)no1 | 0.07 K
CCCOc1cccc(C2C(C(=O)c3ccco3)=C(O)C(=O)N2CCCN2CCOCC2)c1 (stereo not shown) | -0.13 K
NC(=O)C1CCN(c2nc(CSc3ccccc3)nc3sc4c(c23)CCCC4)CC1 | 2.22 K
NC(=O)C1CCN(Cc2nc3ccc(Cl)cc3c(=O)[nH]2)CC1 | -0.23 K
Cc1ccc(NC(=O)CN2CCN(C(=O)c3ccccc3NC(=O)c3ccco3)CC2)cc1 | -0.03 K
COc1ccc(C2C(C(=O)c3cc4ccccc4o3)=C(O)C(=O)N2CCCN2CCOCC2)cc1 (stereo not shown) | 0.01 K
Cn1c(-c2ccccc2)c(C=O)c2ccccc21 | -0.32 K
O=C1/C(=C\c2ccc(Br)cc2)COc2ccccc21 | -0.11 K
O=C(Nc1cccc(S(=O)(=O)N2CCOCC2)c1)c1nn(Cc2ccccc2)c(=O)c2ccccc12 | 0.05 K
CCc1ccc(CNC(C)c2c(C)nn(C)c2C)cc1 (stereo not shown) | -0.21 K
CC(N)CCO (stereo not shown) | -0.03 K
CC1Cc2ccccc2N1C(=O)COC(=O)/C=C/c1cccc(F)c1 (stereo not shown) | 0.09 K
Clc1ccc(-c2nc(CSc3nnc(NCc4ccco4)s3)cs2)cc1 | -0.03 K
CCNCc1ccc2c(c1)OCO2 | -0.18 K
Cc1nc2sccn2c1CNCc1ccccc1 | -0.14 K
Sc1ncc[nH]1 | -0.02 K
CC(=O)N1N=C(c2ccccc2)CC1c1ccc(Br)cc1 (stereo not shown) | -0.08 K
Cc1cc(=O)oc2cc(NC(=O)c3cccc(S(=O)(=O)N(C)c4ccccc4)c3)ccc12 | 0.08 K
Fc1ccc(-c2csc3ncnc(N4CCN(c5nccs5)CC4)c23)cc1 | -0.03 K
NCC(=O)OCc1ccccc1 | -0.28 K
O=C1NCCN(C(=O)c2ccc[nH]2)C1c1ccc(C(F)(F)F)cc1 (stereo not shown) | -0.21 K
Cc1ccc(NC(=O)COC(=O)C23CC4CC(C2)CC(c2ccccc2)(C4)C3)cc1S(=O)(=O)N(C)C | 0.09 K
